Results are given in words; binding and its absence hold for the method and conditions named. Binding seen in cells or lysates may run through a third protein. Some entries that bind do so weakly or less than the wild type.
Target: E2F1 (human (endogenous in PC3 and 5637)) (UniProt Q01094)
Experiment: co-IP; lysates of PC3 and 5637 cells in CHAPS buffer (25 mM HEPES, 2 mM EGTA, 2.5 mM MgCl2, 0.3% CHAPS); 500 ug lysate, 3 ug anti-E2F1 antibody with protein A/G agarose overnight at 4°C; blot for HDAC1

Protein sequences, listed by entry. Tags and fused reporters are not part of them.
UniProt Q01094: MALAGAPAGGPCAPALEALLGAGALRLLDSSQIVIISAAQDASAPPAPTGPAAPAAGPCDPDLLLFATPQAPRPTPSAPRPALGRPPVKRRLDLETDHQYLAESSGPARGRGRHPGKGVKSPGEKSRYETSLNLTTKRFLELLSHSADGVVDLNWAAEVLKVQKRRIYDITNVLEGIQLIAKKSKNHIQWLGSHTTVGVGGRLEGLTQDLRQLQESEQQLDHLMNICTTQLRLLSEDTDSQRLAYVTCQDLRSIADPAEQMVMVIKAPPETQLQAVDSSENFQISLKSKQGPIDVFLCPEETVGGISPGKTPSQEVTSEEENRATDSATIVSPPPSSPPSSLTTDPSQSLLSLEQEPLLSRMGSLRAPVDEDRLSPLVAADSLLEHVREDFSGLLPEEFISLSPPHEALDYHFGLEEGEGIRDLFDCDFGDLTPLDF
UniProt Q13547: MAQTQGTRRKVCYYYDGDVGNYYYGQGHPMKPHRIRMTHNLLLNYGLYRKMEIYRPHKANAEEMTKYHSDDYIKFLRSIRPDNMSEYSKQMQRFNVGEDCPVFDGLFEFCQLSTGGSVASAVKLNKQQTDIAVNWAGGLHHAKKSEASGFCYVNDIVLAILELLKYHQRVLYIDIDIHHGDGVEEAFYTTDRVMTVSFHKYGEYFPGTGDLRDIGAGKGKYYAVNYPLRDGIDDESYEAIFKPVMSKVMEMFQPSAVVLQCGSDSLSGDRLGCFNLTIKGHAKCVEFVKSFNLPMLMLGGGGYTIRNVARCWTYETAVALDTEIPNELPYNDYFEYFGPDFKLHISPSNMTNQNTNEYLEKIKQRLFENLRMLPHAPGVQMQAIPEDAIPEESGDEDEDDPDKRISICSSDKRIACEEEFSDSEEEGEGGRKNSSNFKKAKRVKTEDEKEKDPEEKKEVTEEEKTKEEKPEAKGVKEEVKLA

- binding: binds
Substance: HDAC1 (from UniProt Q13547 1-482)

Source: article PMC4484454
